According to PubChem BioAssay AID493014 (National Center for Advancing Translational Sciences (NCATS), 2011):
Hit rate of the full screen: of about 340,000 compounds, about 170 (0.05%) were called active. This list was built around the results that the source calls inconclusive (neither active nor inactive); the mix of calls is not that of the screen. Calls follow the shape of the dose curve; as a rule, active = well fitted inhibition curve with a large enough effect in the signal ratio, with a control signal flat (not every such curve was filed as active); inconclusive = small, poorly fitted or top-dose-only effect, or effect the other way, or a change in a side signal; inactive = flat fitted curve, though single readings scatter; the % refers to the signal ratio. Potencies beside an inconclusive call are fits to weak or partial responses and may not hold up.

Experiment: qHTS Assay to Find Inhibitors of Chronic Active B-Cell Receptor Signaling;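 as to activity change, negative = inhibition: plate controls were basal doxycycline-induced cells for no effect and cells given 10 µM MG132 for full effect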
Settings: ABC-DLBCL IkBa-CBG/CBR reporter, luminescence ratio (green luciferase fused to IkBa over red control in TMD8 lymphoma cells), 4 h; activity change, negative = inhibition: at 46.1 µM (top of the series)
Summary of the method: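 Cell line TMD8 (human ABC DLBCL), stably expressing tet-inducible CBG68-IkBa fusion and CBR; IMDM/0.5% FBS; cpd up to 46 uM; dox induction, 4 h, 37C/5% CO2; dual luminescence; green/red ratio; MG132 control.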
Potency is read from the fitted curve at half-maximal effect.

Row | Compound | activity change, negative = inhibition | Potency
1 | CCCn1nc(C(=O)N(C)CC(=O)Nc2ccc(OCC)c(OCC)c2)c2ccccc2c1=O | inconclusive: -15.4% | –
2 | CNCc1ccccc1Sc1cc(O)ccc1O | – | inconclusive: 20.6 µM [cytotoxic, partial curve]
3 | N#CC1=C2SCN(c3ccccc3)CN2C(=O)CC1c1c(Cl)cccc1Cl (stereo unspecified) | – | inconclusive: 22.4 µM [falling, single point]
4 | CC(C)n1cnc2c(Nc3ccc(F)c(Cl)c3)nc(NCCO)nc21 | inconclusive: -10% | –
5 | CC(C)c1ccc(NC(=O)C(=O)C2C(=O)Nc3ccccc32)cc1 (stereo unspecified) | – | inconclusive: 14.1 µM [falling, single point]
6 | CN1CCN(c2ccccc2NC(=O)c2cccs2)CC1 | inconclusive: -12.8% | –
7 | CN(CC(=O)Nc1ccc(F)cc1)C(=O)COC(=O)CNC(=O)c1ccc(Cl)cc1Cl | inconclusive: -13.8% | –
8 | CCCN1CCC(=O)N([C@H](COc2ccccc2)c2ccccc2)CC1 | inconclusive: 0.383% | –
9 | Cc1ccc(-c2nc(N=Nc3ccc(O)cc3)n[nH]2)cc1 | – | inconclusive: 20.6 µM [falling, partial curve]
10 | COC(=O)c1ccc(NC(=O)c2ccc(CN3CCOCC3)cc2)cc1 | inconclusive: 1.13% | –
11 | O=C(COC(=O)c1ccc(CNS(=O)(=O)c2ccc(F)c(Cl)c2)cc1)NC1CCCCCCC1 | – | inconclusive: 4.11 µM [falling, full curve, poor fit]
12 | COc1ccc(CCNCc2cc3ccc(C)cc3[nH]c2=O)cc1OC | – | inconclusive: 25.1 µM [falling, partial curve, poor fit]
13 | COc1ccc(N(C)S(=O)(=O)c2c(C)noc2C)c(OC)c1 | inconclusive: 8.19% | –
14 | Cn1cc(C(=O)NCN2CCCCC2)c2ccccc21 | inconclusive: -0.0497% | –
15 | Oc1ccc(-c2csc(NCc3ccco3)n2)cc1 | – | inconclusive: 18.4 µM [falling, partial curve]
16 | O=C(NC[C@@H]1CCCO1)c1cccc2c1C(=O)c1ccc(Cl)cc1S2(=O)=O | inactive: -1.97% | –
17 | CSc1nc(C)c(Cc2c(F)cccc2Cl)c(=O)[nH]1 | inconclusive: -0.0982% | –
18 | O=C1C=C(NCc2ccc(Cl)c(Cl)c2)CC1 | – | inconclusive: 29.1 µM [falling, single point]
19 | Cc1n[nH]c(C)c1CCCCOc1ccccc1F | inconclusive: -0.737% | –
20 | CCC(C)n1c(=N)c(C#N)cc2c(=O)n3cccc(C)c3nc21 (stereo unspecified) | inconclusive: -45.5% | –
21 | N#Cc1c(Cl)nsc1NC(=O)c1ccccc1 | inconclusive: -2.44% | –

4 of these compounds, set out differently.
Row,Compound,"activity change, negative = inhibition",Potency
3,N#CC1=C2SCN(c3ccccc3)CN2C(=O)CC1c1c(Cl)cccc1Cl (stereo unspecified),–,"inconclusive: 22.4 µM [falling, single point]"
4,CC(C)n1cnc2c(Nc3ccc(F)c(Cl)c3)nc(NCCO)nc21,inconclusive: -10%,–
5,CC(C)c1ccc(NC(=O)C(=O)C2C(=O)Nc3ccccc32)cc1 (stereo unspecified),–,"inconclusive: 14.1 µM [falling, single point]"
6,CN1CCN(c2ccccc2NC(=O)c2cccs2)CC1,inconclusive: -12.8%,–

(list continues)

Row | Compound | activity change, negative = inhibition | Potency
22 | COc1ccc(-c2oc(NC(=O)c3ccc(C)cc3)c(C#N)c2-c2ccc(OC)cc2)cc1 | inconclusive: 14.6% | –
23 | CC(c1ccccc1)n1cnc2ccccc2c1=O (stereo unspecified) | inactive: -2.77% | –
24 | COc1ccc(/C(N)=N/OC(=O)Cc2ccccc2[N+](=O)[O-])cc1 | inconclusive: 0.763% | –
25 | C/C(Cl)=C/Cc1c(C)[nH]c2c(ccc3ccccc32)c1=O | inconclusive: 9.21% | –
26 | OC(c1ccc(OCc2ccccc2)cc1)c1nnc(-c2ccccc2)o1 (stereo unspecified) | inconclusive: -14.3% | –
27 | Cc1ccc(C(=O)N/N=C\C=C\c2ccc(Br)cc2)cn1 | inconclusive: -16.9% | –
28 | Cc1c(C(=O)Nc2ccc3c(c2)OCO3)sc2ncn(CC(=O)N3CC(C)CC(C)C3)c(=O)c12 (stereo unspecified) | inconclusive: -23.8% | –
29 | COc1ccccc1CNC(=O)Cc1csc(NC(=O)Nc2ccccc2OC)n1 | inconclusive: -17.6% | –
30 | COc1cc(/C=C(\C#N)C(=O)c2c[nH]c3ccccc23)cc(OC)c1O | – | inconclusive: 35.5 µM [falling, single point]
31 | COc1ccc(C)cc1NC(=O)C(NCC1CCCO1)c1ccccc1 (stereo unspecified) | inconclusive: -3.87% | –
32 | COc1ccc2[nH]c(=O)c(CN(Cc3ccco3)C(=O)c3ccccc3)cc2c1 | inactive: -0.511% | –
33 | CCOc1ccc2ccccc2c1/C=N/NC(=O)c1ccncc1 | inconclusive: -9.27% | –
34 | COc1cccc(-n2c(SCC(N)=O)nnc2-c2c[nH]c3ccccc23)c1 | – | inconclusive: 4.11 µM [falling, full curve, poor fit]
35 | CO/N=C(/COc1ccc(F)cc1)c1ccc(OC)cc1 | inconclusive: 1.59% | –
36 | c1ccc(CCNc2ncnc3ccccc23)cc1 | – | inconclusive: 25.1 µM [falling, partial curve, poor fit]
37 | CCOC(=O)c1[nH]c(C)c(/C=N/O)c1C | – | inconclusive: 15.8 µM [cytotoxic, partial curve]
38 | Cn1nnnc1Sc1ncnc2scc(-c3cccc(F)c3)c12 | inconclusive: -24.8% | –
39 | CCCCCCCNC(=O)c1ccc(N2CCC3(CC2)OCCO3)c([N+](=O)[O-])c1 | inconclusive: 1.16% | –
40 | O=C(NCCCc1ccccc1)Nc1cccc(Cl)c1 | inconclusive: 0.322% | –
41 | Cc1ccc(-c2nn(-c3ccccc3)cc2/C=C2\SC(=S)N(CCCCCC(=O)O)C2=O)o1 | inconclusive: 9.2% | –
